From PMC10216714, “NMR and Patch-Clamp Characterization of Yeast Mitochondrial Pyruvate Carrier Complexes” (Biomolecules, 2023)
No constants are given. Whether binding was seen depends on the method and setting. Some results given as binding are weak or reduced against the parent protein; the word gives no strength. Tags and fused reporters may be left off the sequences shown.

Target: T1, MTSL-labelled Mpc1 monomer (MTSL on C87) (Saccharomyces cerevisiae), P53157
T1 chain: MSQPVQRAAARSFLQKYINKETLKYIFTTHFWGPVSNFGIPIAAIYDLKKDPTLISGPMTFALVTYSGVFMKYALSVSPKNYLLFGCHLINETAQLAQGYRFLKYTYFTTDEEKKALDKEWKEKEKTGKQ
Experiment: paramagnetic relaxation enhancement (PRE) NMR; MTSL-labelled monomer co-refolded with 15N-labelled monomer; 1H-15N BEST-TROSY with and without vitamin C; 25 mM NaAc pH 6.0, 50 mM glutamic acid, 50 mM arginine, 10 mM β-ME, 1 mM EDTA, 1 mM DPC, 2 mM LDAO; 308 K, 850 MHz; both purified
Details: remark: other sources report otherwise

binding: binds
B1: Saccharomyces cerevisiae mitochondrial pyruvate carrier 1 (Mpc1) with C-terminal 8×His-tag, P53157 1-130 (natural protein)
chain: T1 chain
modifications: here or on the partner: MTSL spin label on C87
